Literature values, collected in patent US11739305B2, “Sialyltransferase variants having neosialidase activity” (The Regents of the University of California, priority 2017, dated 2023).
At least one read-out could not be matched to a standard name with certainty.

Assays:
[1] = CMP-Neu5Ac hydrolysis, wild-type, reported previously (McArthur, Chen, et al. Org. Biomol. Chem. 2017)
[2] = wild-type, reported previously (Cheng, Chen, et al. Glycobiology 2010)

B1: Pd2,6ST: Photobacterium damselae α2-6-sialyltransferase, wild-type enzyme (GenBank BAA25316.1, SEQ ID NO: 1) (protein, listed as Photobacterium damselae)
chain: MKKILTVLSIFILSACNSDNTSLKETVSSNSADVVETETYQLTPIDAPSSFLSHSWEQTCGTPILNESDKQAISFDFVAPELKQDEKYCFTFKGITGDHRYITNTTLTVVAPTLEVYIDHASLPSLQQLIHIIQAKDEYPSNQRFVSWKRVTVDADNANKLNIHTYPLKGNNTSPEMVAAIDEYAQSKNRLNIEFYTNTAHVFNNLPPIIQPLYNNEKVKISHISLYDDGSSEYVSLYQWKDTPNKIETLEGEVSLLANYLAGTSPDAPKGMGNRYNWHKLYDTDYYFLREDYLDVEANLHDLRDYLGSSAKQMPWDEFAKLSDSQQTLFLDIVGFDKEQLQQQYSQSPLPNFIFTGTTTWAGGETKEYYAQQQVNVINNAINETSPYYLGKDYDLFFKGHPAGGVINDIILGSFPDMINIPAKISFEVLMMTDMLPDTVAGIASSLYFTIPADKVNFIVFTSSDTITDREEALKSPLVQVMLTLGIVKEKDVLFWADHKVNSMEVAIDEACTRIIAKRQPTASDLRLVIAIIKTITDLERIGDVAESIAKVALESFSNKQYNLLVSLESLGQHTVRMLHEVLDAFARMDVKAAIEVYQEDDRIDQEYESIVRQLMAHMMEDPSSIPNVMKVMWAARSIERVGDRCQNICEYIIYFVKGKDVRHTKPDDFGTMLD
kcat/Km [1]: 147 M⁻¹ s⁻¹ | kcat/KM [2]: 18.3 M⁻¹ s⁻¹
